Reference: paper PMC2939893
No constants are given. Whether binding was seen depends on the method and setting. For some of these results: In cells and extracts the contact can be indirect. Some results given as binding are weak or reduced against the parent protein; the word gives no strength. For some of these results: Where a sequence is shown, tags or fusion partners need not be part of it.

Protein sequences, listed by entry. Tags and fused reporters are not part of them. Residues count along the entry.
UniProt Q4ZJM7, residues 24-482: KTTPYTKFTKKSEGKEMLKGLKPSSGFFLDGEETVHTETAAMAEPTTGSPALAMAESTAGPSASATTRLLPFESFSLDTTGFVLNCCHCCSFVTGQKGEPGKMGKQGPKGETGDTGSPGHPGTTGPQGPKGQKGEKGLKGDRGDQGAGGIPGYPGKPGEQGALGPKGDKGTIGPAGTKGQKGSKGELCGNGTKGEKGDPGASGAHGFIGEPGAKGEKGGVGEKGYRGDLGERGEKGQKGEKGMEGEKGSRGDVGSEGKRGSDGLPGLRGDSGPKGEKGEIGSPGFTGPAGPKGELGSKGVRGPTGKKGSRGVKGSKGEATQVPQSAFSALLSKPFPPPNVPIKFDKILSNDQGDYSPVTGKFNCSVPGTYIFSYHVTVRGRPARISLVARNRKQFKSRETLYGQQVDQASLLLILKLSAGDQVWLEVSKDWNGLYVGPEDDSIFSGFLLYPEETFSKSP
UniProt Q9R171, residues 22-193: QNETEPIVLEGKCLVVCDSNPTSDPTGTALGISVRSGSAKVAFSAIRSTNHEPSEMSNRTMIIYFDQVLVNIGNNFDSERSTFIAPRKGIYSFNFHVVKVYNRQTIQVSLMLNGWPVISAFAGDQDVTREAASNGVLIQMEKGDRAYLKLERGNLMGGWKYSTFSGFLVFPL
UniProt Q8BME9, residues 25-198: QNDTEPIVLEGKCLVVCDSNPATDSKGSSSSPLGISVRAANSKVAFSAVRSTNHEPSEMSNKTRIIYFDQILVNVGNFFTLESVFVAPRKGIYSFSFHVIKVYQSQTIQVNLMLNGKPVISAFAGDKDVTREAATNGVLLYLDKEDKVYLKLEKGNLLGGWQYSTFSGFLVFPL

Experiments:
[1] = biological target: endogenous Otolin from P0 mouse inner ear (mouse (endogenous in P0 mouse inner ear)) (UniProt Q4ZJM7); test: native gel or EMSA; P0 mouse inner ear ground to powder, resuspended in native sample buffer, 4% Tris-Glycine native gel; immunoblot with anti-otolin antibody
[2] = biological target: endogenous Otolin from P0 mouse inner ear (mouse (endogenous in P0 mouse inner ear)) (UniProt Q4ZJM7); test: non-reducing SDS-PAGE; ground-up P0 mouse inner ear in LDS sample buffer with or without β-mercaptoethanol, 90°C 10 min, 4-12% Bis-Tris gel; immunoblot with anti-otolin antibody
[3] = biological target: Cerebellin-1, epitope-tagged (mouse) (UniProt Q9R171); test: co-IP + native gel or EMSA; otolin co-immunoprecipitated with FLAG-tagged Cbln1 or Oc90 from supernatants, eluted and run on a 4% Tris-Glycine native gel, immunoblot
[4] = biological target: Cerebellin-1, epitope-tagged (mouse) (UniProt Q9R171); test: co-IP; supernatants of HEK293T cells co-expressing HA-tagged otolin and FLAG-tagged proteins; IP with anti-FLAG affinity gel in IP buffer (150 mM Tris-HCl pH 7.4, 150 mM NaCl, 1 mM EDTA, 1% Triton X-100), 4°C; immunoblot with anti-HA
[5] = biological target: T1, CTRP3, epitope-tagged (mouse) (UniProt Q9ES30); test: as above
T1 sequence: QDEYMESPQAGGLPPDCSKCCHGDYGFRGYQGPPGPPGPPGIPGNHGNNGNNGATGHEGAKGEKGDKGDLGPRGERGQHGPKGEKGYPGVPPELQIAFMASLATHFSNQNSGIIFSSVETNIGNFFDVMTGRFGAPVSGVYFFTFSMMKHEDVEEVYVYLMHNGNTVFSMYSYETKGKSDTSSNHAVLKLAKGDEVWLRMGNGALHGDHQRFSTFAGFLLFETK

[6] = biological target: Cerebellin-4, epitope-tagged (mouse) (UniProt Q8BME9); test: as above
[7] = biological target: Cerebellin-1, epitope-tagged (mouse) (UniProt Q9R171); test: co-IP; as the co-IP from supernatants, in the presence of 5 mM EDTA; data not shown

In the case of “endogenous Otolin from P0 mouse inner ear (from UniProt Q4ZJM7 24-482)”, the binding [1] is reported as “binds” and the binding [2] is reported as “binds”.
With “C-terminal HA-tagged Otolin (from UniProt Q4ZJM7 24-482)” the binding [3] was “binds”, the binding [4] was “binds” and the binding [5] was “binds weakly”. For the same substance, the binding [6] was “binds weakly” and the binding [7] was “binds”.
